{
  "source": "patent US20060159735A1",
  "about": "“Method of reclaiming drug compound from liposomal drug manufacturing stream” (priority 2005, published 2006)",
  "experiment": "Chloroform extraction of OSI-7904 solution with trace (saturated solution) HSPC and cholesterol",
  "type": "physicochemical",
  "conditions": "1.2 mg/mL OSI-7904, trace HSPC and cholesterol; 1:3 CHCl3:Aq; manual shaking 1 min",
  "description": "The work above had been carried out with dispersions of solid HSPC:cholesterol. It was thought that the actual permeate would only contain materials in free solution. A better model for this was considered to be saturating some water with the HSPC:cholesterol mix, filtering out the solid and working with this clarified solution. A saturated solution prepared in this way typically contained only traces of cholesterol and HSPC. It was noticed however that on one occasion when the dispersion of HSPC:cholesterol in water had been stirred continuously for approximately four days, the filtrate was opalescent and not clear and the levels of the HSPC and cholesterol were much higher. It was thought the most likely explanation for this was that initially multilamellar liposomes were formed and these were filtered out leaving only HSPC and cholesterol that are in free solution or in micelles. On extending mixing, the multilamellar liposomes are broken down to smaller particles and these are able to pass through the pores of the filter.\nA 1.2 mg/mL solution of OSI-7904 was prepared containing trace levels of HSPC and cholesterol in solution (no solid present). This was extracted with chloroform in the 1:3 ratio (8.8 mL:26.5 mL, CHCl3:Aq) by manually shaking for 1 min. […] The aqueous phase was filtered through a 0.45 μm aperture filter and analyzed for OSI-7904, cholesterol and HSPC by HPLC. […]",
  "note": "At least one read-out could not be matched to a standard name with certainty.",
  "data": [
    {"smiles": "Cc1nc2ccc3ccc(CNc4ccc5c(c4)CN([C@@H](CCC(=O)O)C(=O)O)C5=O)cc3c2c(=O)[nH]1", "note": "[OSI-7904]", "values": [
      {"measurement": "recovery in the aqueous phase after extraction with chloroform", "value": "approximately 94%"}
    ]}
  ]
}
